According to paper PMC9731985:
Results are given in words; binding and its absence hold for the method and conditions named. Binding seen in cells or lysates may run through a third protein. A yes stands for co-enrichment or nearness to the bait. Other partners may have been found.

The chains behind the UniProt entries cited, without tags or fusion partners.
UniProt O60260: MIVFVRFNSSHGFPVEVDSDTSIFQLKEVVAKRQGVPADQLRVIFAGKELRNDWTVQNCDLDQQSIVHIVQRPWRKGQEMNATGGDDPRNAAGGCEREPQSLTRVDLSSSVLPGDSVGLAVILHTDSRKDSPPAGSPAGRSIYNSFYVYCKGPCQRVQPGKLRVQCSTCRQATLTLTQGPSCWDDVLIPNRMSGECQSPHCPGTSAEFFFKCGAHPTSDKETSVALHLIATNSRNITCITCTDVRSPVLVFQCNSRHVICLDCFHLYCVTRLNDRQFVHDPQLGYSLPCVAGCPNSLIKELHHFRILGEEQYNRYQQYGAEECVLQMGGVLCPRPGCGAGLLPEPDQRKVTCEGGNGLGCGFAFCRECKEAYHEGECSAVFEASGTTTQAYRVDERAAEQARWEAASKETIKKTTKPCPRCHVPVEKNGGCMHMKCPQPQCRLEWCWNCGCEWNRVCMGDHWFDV

Biological target: FLAG-tagged Parkin (human) (UniProt O60260)
Assay: affinity purification with mass spectrometry; FLAG-Parkin overexpressed in Hep3B cells, cultured under normoxia or hypoxia for 12 h, immunoprecipitated with the anti-FLAG antibody; the band indicated by the arrow analysed by LC-MS

binding: binds
Substance: heat shock cognate 71 kDa protein (Hsc70) (from UniProt P11142-1 1-646)
